System: poor lung function induced by porcine pancreatic elastase
Test: Test Example 3: FEV0.05/FVC in poor lung function induced by porcine pancreatic elastase, compared with muscarinic antagonists
Type: in vivo, ICR mice
Settings: 38 μg/kg by airway administration once daily for 11 days, measured on Day 14 (FIG. 10)
Protocol: Measurement of a ratio of forced expiratory volume (FEV) in the first 0.05 seconds to forced vital capacity (FVC) (FEV0.05/FVC) was performed by using the above-mentioned computer-controlled small animal ventilator connected to a negative pressure reservoir (SCIREQ Scientific Respiratory Equipment Inc.). FEV0.05/PVC was determined by using the FlexiVent software. As with Test Example 1, 4 to 6 week old ICR mice were treated with porcine pancreatic elastase. […] On Day 14, FEV0.05/FVC was measured by the method described in the above-mentioned “Measurement of FEV0.05/FVC.”

With `CC(C)[N+]1(C)[C@@H]2CC[C@H]1C[C@@H](OC(=O)C(CO)c1ccccc1)C2` (some centres unmarked) [ipratropium] the “recovering effect of vital capacity represented by FEV0.05/FVC reduced by PPE administration” value was “did not show a significant recovering effect”.

In the case of `CN1[C@@H]2C[C@@H](OC(=O)[C@H](CO)c3ccccc3)C[C@H]1[C@@H]1O[C@@H]12` [scopolamine], the “recovering effect of vital capacity represented by FEV0.05/FVC reduced by PPE administration” value is reported as “did not show a significant recovering effect”.

From US9539248B2, “Agent for ameliorating chronic obstructive pulmonary disease” (LTT BIO-PHARMA CO., LTD., priority 2012, dated 2017)
